Out of some 31,000 sequences screened, about 1,400 (4.5%) were called active.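 Rule for the calls: active = median seed-adjusted z-score above 1 or below -1; inactive = the rest.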 The list shows a part of the results.

This assay can be described thus: Novel Modifiers of Survival Motor Neuron (SMN) Protein: Gene Identification via Genome-wide siRNA Screen.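 Note: luminescence tracks full-length SMN protein made from the SMN2 reporter.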 The note with it: HEK293T SMN2-luciferase reporter, siRNA knockdown, 72 h; actives lie on both sides. A digest of the protocol:
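Each of three siRNAs per gene is reverse-transfected (1 pmol) into reporter HEK293T cells whose luciferase output tracks SMN protein level. After 72 h culture, ONE-Glo luminescence is control-normalized, log10-transformed and MAD-standardized; Common Seed Analysis deprioritizes seed-driven hits.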
CACUUAUGCUGCGAGCUGATT against OBSCN: the median seed-adjusted z-score is inactive: -0.798.

Take CGCCCUUCUCAGGAAUCUATT against SLC25A38: the median seed-adjusted z-score is inactive: 0.

Take GCUCGAGGCAAGACCUAUATT against PFKFB1: the median seed-adjusted z-score is inactive: -0.561.

As to GCUCCUCUCAGGUUACCUUTT against TBC1D22A, the median seed-adjusted z-score is inactive: -0.00192.

Take GGACAAAUUUUGGAGAGAATT against COG2: the median seed-adjusted z-score is inactive: 0.791.

As to GGAAUUAGACCUAAAUGAATT against RNF148, the median seed-adjusted z-score is inactive: 0.552.

For the sequence GGACCUUCCCAGUACUAGUTT against CDKN1C, the median seed-adjusted z-score is inactive: -0.0497.

For the sequence CUACCUCAGUGACAGUCAATT against SDK2, the median seed-adjusted z-score is inactive: 0.908.

Turning to GGACUUUCAUUAAUCACGUTT against ATP8B4, the median seed-adjusted z-score was inactive: -0.00244.

Regarding CCACUACUCACAAGACUCUTT against SHMT2, the median seed-adjusted z-score was inactive: -0.0453.

With GGAAAACUCGAAAGAGUAATT against HNRNPR, the median seed-adjusted z-score is inactive: 0.308.

Turning to CCAUGACAUCUCUACCGAATT against RFFL, the median seed-adjusted z-score is inactive: -0.437.

On to GGUCUUUCCCGGUGCUAUATT against ZNF697, for which the median seed-adjusted z-score is inactive: 0.0503.

Turning to GCUCUGAUCAUUGAUCCAATT against BRPF1, the median seed-adjusted z-score was inactive: 0.

For the sequence GUCUAAGAGAAUACAAUGATT against MNAT1, the median seed-adjusted z-score is inactive: -0.335.

With GCAUCGAAGUGGUGGAAGATT against RNF123, the median seed-adjusted z-score is inactive: 0.

Take CCCUGAAUAUACACGAGAATT against PITPNA: the median seed-adjusted z-score is inactive: -0.225.

With GCAUCCUAGUCUCUAUCAUTT against LTC4S, the median seed-adjusted z-score was inactive: 0.

In the case of CUGAUUUGAUUGAAACGUATT against SCN9A, the median seed-adjusted z-score is inactive: -0.581.

With CAAUUUCACCAACAUGUUATT against CS, the median seed-adjusted z-score was inactive: -0.419.

For the sequence GAAUGAAAUCCGAACAGUUTT against AK1, the median seed-adjusted z-score was inactive: -0.0471.

Take GAGAUGAUUUGCACUAUAATT against ZNF45: the median seed-adjusted z-score was inactive: 0.172.

Turning to GAAACUCCAUGGAAACAAATT against SPOCK2, the median seed-adjusted z-score was inactive: 0.967.

In the case of GGACUCUUCUUUAGCUUUATT against TSPAN31, the median seed-adjusted z-score is active: -1.13.

Turning to GAUCCUUCAUUAUGCAACATT against OSBPL7, the median seed-adjusted z-score is inactive: 0.

As for GCCUGUUCUUUAUCAUGCUTT against SLC6A12, the median seed-adjusted z-score was inactive: -0.708.

On to CCAUCGACCUCGUCAUUGATT against MEIS2, for which the median seed-adjusted z-score was inactive: 0.475.

Regarding GAACUUAGAUGUCAGUGCATT against IL8, the median seed-adjusted z-score is inactive: 0.0521.

Regarding GGAGAUAGCUUUGCCUAUATT against RBM15B, the median seed-adjusted z-score was inactive: -0.183.

Take GACACUUUCUACAUCAAAATT against CRABP2: the median seed-adjusted z-score was inactive: 0.0092.

GAAUAGAGAUCAAAUUCCATT against CD163: the median seed-adjusted z-score is inactive: 0.021.

Turning to GGAUCAGCCGAGGAUGAAATT against PPP1R15A, the median seed-adjusted z-score was inactive: 0.539.

As to GCCUCCGAAUCAACCGUUATT against RABGEF1, the median seed-adjusted z-score was inactive: 0.278.

In the case of ACAAGACGACCUACAAUAATT against PLA2G2A, the median seed-adjusted z-score was inactive: 0.809.

For AGUUUAUUCCCUUAUCAGATT against COPS8, the median seed-adjusted z-score is inactive: 0.148.

For the sequence GUUUGAAUGCGGUGUAGAATT against LOC158381, the median seed-adjusted z-score was inactive: 0.

On to CAUCGGUGUCUAUACUACATT against CXCL16, for which the median seed-adjusted z-score is inactive: 0.201.

As for CUCUCUUAGUGUCCUUAGATT against PCDHGC4, the median seed-adjusted z-score was inactive: 0.301.

GCACCAUAGACUUUCGGGATT against HPCA: the median seed-adjusted z-score is inactive: 0.12.

With “GCUACAACAUCCAGCCUAATT against STON1-GTF2A1L”, the median seed-adjusted z-score is inactive: 0.294.

In the case of CAACCUCUAGAAUCCCGUATT against EHHADH, the median seed-adjusted z-score is inactive: 0.0626.

For CAGCUGUAGUUCUAACUAUTT against ZNF23, the median seed-adjusted z-score was inactive: -0.106.

Consider CCUUGCACCAGGCACAAAATT against CLCNKA, for which the median seed-adjusted z-score is inactive: -0.398.

As for GAACUGCAAGAUGAAGUUUTT against CHRNA2, the median seed-adjusted z-score is inactive: -0.513.

In the case of CUUGGACAAUUACAUCUAATT against SEL1L2, the median seed-adjusted z-score is inactive: -0.342.

With GGGACGGAAUAAAUGCUCUTT against NDUFA13, the median seed-adjusted z-score is inactive: -0.138.

CCUACAACAAUAAAACGGATT against NEK5: the median seed-adjusted z-score was inactive: 0.0403.

ACUCCUCUGUGAACCUACUTT against ASIP: the median seed-adjusted z-score is inactive: -0.23.

In the case of CAUCAAUCAUGAGGGCCUATT against ADCY4, the median seed-adjusted z-score is inactive: -0.0551.

In the case of GGUCUACUUCUACUACAAUTT against UTY, the median seed-adjusted z-score was inactive: -0.538.

Turning to CAACGAUCGUGAAAGAAUUTT against ARF4, the median seed-adjusted z-score was inactive: 0.346.

As to UGUCAGGUAUGGGUUCGAATT against ABCG1, the median seed-adjusted z-score was inactive: -0.609.

For CAUCCUCAGUAAAUCGAGATT against DHX29, the median seed-adjusted z-score is inactive: -0.28.

Consider GCACUCAUGUCAUACUGAATT against LIPA, for which the median seed-adjusted z-score is inactive: 0.535.

For GCAUUACACCACUCAGUAUTT against TMPRSS3, the median seed-adjusted z-score is inactive: -0.554.

UGCGAGAUGUGGUAACGAATT against TRAP1: the median seed-adjusted z-score was inactive: -0.637.

With UAACAGGAGCUGUAUUUAATT against AQP11, the median seed-adjusted z-score was inactive: -0.0455.

GGCUGGUACCUGGAUGAGATT against FTCD: the median seed-adjusted z-score was inactive: -0.27.

With GCACCGUUCAAAUACUUAUTT against PCDHA2, the median seed-adjusted z-score is inactive: 0.803.

For GAAUACAGGCCUCAUUGAATT against ZKSCAN3, the median seed-adjusted z-score is inactive: 0.

In the case of GCAGUUUGCCGAGAUGUAUTT against EEF2, the median seed-adjusted z-score is inactive: -0.159.

Turning to CCAAAUCAGUCUGAAAGUATT against IL10RA, the median seed-adjusted z-score is inactive: 0.156.

With AAAAGAAAAGUAUCGUGUATT against CDX4, the median seed-adjusted z-score is inactive: 0.181.

Consider CAGGCGUGGUAUUCAGGGATT against APRT, for which the median seed-adjusted z-score was inactive: 0.0278.

Take GACAAUACGUCAGGAAAUATT against AREG: the median seed-adjusted z-score was inactive: 0.104.

With CCACCUUCCAAAAUAGCGATT against LIFR, the median seed-adjusted z-score was inactive: 0.031.

With GAACUAUCACUUACAGAGATT against ZNF148, the median seed-adjusted z-score is inactive: 0.307.

As to CCAACGCAAAUAAACCGAATT against NCOA6, the median seed-adjusted z-score is inactive: -0.0197.
